Source: the supplement of paper PMC11542785
Where a name gives a salt, the structure may show the parent alone. The list shows a part of the results. Single values are uncertain, as repeats are few or missing.

System: Drosophila melanogaster DPAGT1 (Alg7) RNAi eye model
Assay: eye size Z-score vs DMSO-treated DPAGT1 model flies; higher = larger eye (suppression of DPAGT1 phenotype)
Conditions: 5 uM

SMILES	eye size Z-score	eye size Z-score (female)
C/C(=C(\CCOC(=O)c1ccccc1)SS/C(CCOC(=O)c1ccccc1)=C(/C)N(C=O)Cc1cnc(C)nc1N)N(C=O)Cc1cnc(C)nc1N [Bisbentiamine]	-0.14	–
CCC1=C(C)CN(C(=O)NCCc2ccc(S(=O)(=O)NC(=O)N[C@H]3CC[C@H](C)CC3)cc2)C1=O [Glimepiride]	1.05	–
OCc1cc(C(O)CNCCCCCCOCCCCc2ccccc2)ccc1O (stereo not given) [Salmeterol]	0.5	–
CC(=O)OCC(=O)[C@@]12N=C(C)O[C@@H]1C[C@H]1[C@@H]3CCC4=CC(=O)C=C[C@]4(C)[C@H]3[C@@H](O)C[C@@]12C [Deflazacort]	0.15	–
O=C(O)Cc1sc(-c2ccccc2)nc1-c1ccc(Cl)cc1 [Fentiazac]	1.32	–
CNCCC(Oc1ccc(C(F)(F)F)cc1)c1ccccc1 (stereo not given) [Fluoxetine hydrochloride]	0.5	–
Cc1nc2n(c(=O)c1CCN1CCC(c3noc4cc(F)ccc34)CC1)CCCC2 [Risperidone]	1.29	–
CC(=O)Nc1ccc(CC(=O)O)cc1 [Actarit]	0.31	–
C[C@@H](CN1CC(=O)NC(=O)C1)N1CC(=O)NC(=O)C1 [Dexrazoxane hydrochloride]	-0.46	–
CC(=O)N[C@H]1[C@H]([C@H](O)[C@H](O)CO)OC(C(=O)O)=C[C@@H]1NC(=N)N [Zanamivir]	-0.49	–
CCN1CC(CCN2CCOCC2)C(c2ccccc2)(c2ccccc2)C1=O (stereo not given) [Doxapram hydrochloride]	0.52	–
O=C(c1cc(O)c(O)c(O)c1)c1ccc(O)c(O)c1O [Exifone]	0.56	–
CCCCNC(=O)NS(=O)(=O)c1ccc(C)cc1 [Tolbutamide]	1.82	–
O=C(O)c1cc(-c2ccc(F)cc2F)ccc1O [Diflunisal]	0.78	–
CC(=O)[C@H]1CC[C@H]2[C@@H]3C[C@H](C)C4=CC(=O)CC[C@]4(C)[C@H]3[C@@H](O)C[C@]12C [Medrysone]	0.72	–
CCOC(=O)OC(C)OC1=C(C(=O)Nc2ccccn2)N(C)S(=O)(=O)c2ccccc21 (stereo not given) [Ampiroxicam]	-0.17	–
CCOc1ccccc1OCCN[C@H](C)Cc1ccc(OC)c(S(N)(=O)=O)c1 [(R)-Tamsulosin hydrochloride]	0.46	–
CCn1cc(C(=O)O)c(=O)c2cnc(N3CCCC3)nc21 [Piromidic acid]	-0.61	–
O=S(=O)(O)CCS [Coenzyme M]	0.14	–
CC(C)Nc1ncccn1 [Isaxonine]	0.18	–
CC(C)(C)NC[C@H](O)c1ccc(O)c(CO)c1 [Levalbuterol hydrochloride]	-0.92	–
O=C1c2ccccc2S(=O)(=O)N1CCCCN1CCN(c2ncccn2)CC1 [Ipsapirone]	-0.03	–
Cn1c([N+](=O)[O-])cnc1COC(N)=O [Ronidazole]	0.04	–
COc1ccc(C(=O)NCc2ccc(OCCN(C)C)cc2)cc1OC [Itopride]	0.01	–
N[C@@H](C(=O)N[C@@H]1C(=O)N2C(C(=O)O)=C(Cl)CS[C@H]12)c1ccccc1 [Cefaclor hydrate]	0.28	–

SMILES	eye size Z-score	eye size Z-score (female)
CC(Oc1ccccc1)C(=O)N[C@@H]1C(=O)N2[C@@H]1SC(C)(C)[C@@H]2C(=O)O (stereo not given in full) [Phenethicillin potassium salt]	0.83	–
Brc1c(NC2=NCCN2)ccc2nccnc12 [Brimonidine L-tartrate]	0.46	–
CN(C)CCOC(=O)COc1ccc(Cl)cc1 [Meclofenoxate hydrochloride]	–	0.11
CCCc1nc(C(C)(C)O)c(C(=O)O)n1Cc1ccc(-c2ccccc2-c2nnn[nH]2)cc1 [Olmesartan]	-0.51	–
Cc1ccc2c(Cl)cc(Cl)c(O)c2n1 [Chlorquinaldol]	0.31	–
N=C(N)N/N=C/c1c(Cl)cccc1Cl [Guanabenz acetate]	-0.35	–
OC(CCN1CCCCC1)(c1ccccc1)C1CCCCC1 (stereo not given) [Trihexyphenidyl-D,L hydrochloride]	-0.36	–
CC1(C)S[C@@H]2[C@H](NC(=O)C(c3ccccc3)S(=O)(=O)O)C(=O)N2[C@H]1C(=O)O (stereo not given in full) [Sulbenicillin sodium salt]	-0.46	–
CN(CCOc1ccc(CC2SC(=O)NC2=O)cc1)c1ccccn1 (stereo not given) [Rosiglitazone hydrochloride]	-0.22	–
CCC(=O)OCC(=O)[C@@]1(OC(=O)CC)[C@H](C)C[C@H]2[C@H]3[C@H]([C@@H](O)C[C@@]21C)[C@@]1(C)C=CC(=O)C=C1C[C@H]3Cl [Alclometasone dipropionate]	-0.05	–
COc1ccc(C[C@@H]2c3cc(OC)c(OC)cc3CC[N@+]2(C)CCC(=O)OCCCCCOC(=O)CC[N@@+]2(C)CCc3cc(OC)c(OC)cc3[C@H]2Cc2ccc(OC)c(OC)c2)cc1OC [Cisatracurium besylate]	0.6	–
Nc1cc(-c2ccncc2)c[nH]c1=O [Amrinone]	0.1	–
CC(N)C12CC3CC(CC(C3)C1)C2 (stereo not given) [Rimantadine hydrochloride]	0.37	–
N#Cc1ccc(Oc2ccc3c(c2)COB3O)cc1 [Crisaborole]	0.68	–
OCCOCCN1CCN(C(c2ccccc2)c2ccc(Cl)cc2)CC1 (stereo not given) [Hydroxyzine dihydrochloride]	-0.58	–
C=CC1=C(C(=O)O)N2C(=O)[C@@H](NC(=O)/C(=N\OCC(=O)O)c3csc(N)n3)[C@H]2SC1 [Cefixime]	0.14	–
Cc1cc(-n2c(=O)[nH]c(=O)n(C)c2=O)ccc1Oc1ccc(SC(F)(F)F)cc1 [Toltrazuril]	0.21	–
Cc1ccccc1N1C(=O)c2cc(S(N)(=O)=O)c(Cl)cc2NC1C (stereo not given) [Metolazone]	-0.49	–
COc1ccc2[nH]c([S+]([O-])Cc3ncc(C)c(OC)c3C)nc2c1 (stereo not given) [Omeprazole]	0.11	–
CC(=O)Nc1ccc(O)cc1 [Acetaminophen]	-0.73	–
CO/N=C(\C(=O)N[C@@H]1C(=O)N2C(C(=O)O)=C(C[N+]3(C)CCCC3)CS[C@H]12)c1csc(N)n1 [Cefepime hydrochloride]	-0.24	–
CCOC(=O)[C@H](CCc1ccccc1)N[C@@H](C)C(=O)N1CCC[C@H]1C(=O)O [Enalapril maleate]	-0.12	–
CC(Oc1c(Cl)cccc1Cl)C1=NCCN1 (stereo not given) [Lofexidine]	-0.27	–
CC1=C(CC(=O)O)c2cc(F)ccc2/C1=C\c1ccc([S+](C)[O-])cc1 (stereo not given) [Sulindac]	1.17	–
CN(C)CCCO[C@@H]1[C@H]2OC(C)(C)O[C@H]2O[C@@H]1[C@H](O)CO [Amiprilose hydrochloride]	-0.08	–

SMILES	eye size Z-score	eye size Z-score (female)
C[C@]12CC[C@@H]3c4ccc(O)cc4CC[C@H]3[C@@H]1C[C@@H](O)[C@@H]2O [Estriol]	-0.97	–
CCc1cccc2c3c([nH]c12)C(CC)(CC(=O)O)OCC3 (stereo not given) [Etodolac]	-0.41	–
Cc1noc(NS(=O)(=O)c2ccc(N)cc2)c1C [Sulfisoxazole]	0.08	–
CC[N+](CC)(CC)CCC(O)(c1ccccc1)C1CCCCC1 (stereo not given) [Tridihexethyl chloride]	0.06	–
CN1CCOC(c2ccccc2)c2ccccc2C1 (stereo not given) [Nefopam hydrochloride]	-0.27	–
CN1CCC(=C2c3ccccc3CCc3sccc32)CC1 [Pizotifen malate]	-0.56	–
CN(C)[C@@H]1C(O)=C(C(=O)NCNCCCC[C@H](N)C(=O)O)C(=O)[C@@]2(O)C(O)=C3C(=O)c4c(O)cccc4[C@@](C)(O)[C@H]3C[C@@H]12 [Lymecycline]	1.1	–
CCCCNc1ccc(C(=O)OCCN(C)C)cc1 [Tetracaine hydrochloride]	0.13	–
O=C(Cn1cnnn1)N[C@@H]1C(=O)N2C(C(=O)O)=C(CSc3nncs3)CS[C@H]12 [Ceftezole]	0.37	–
CCCCCOC(=O)Nc1nc(=O)n([C@@H]2O[C@H](C)[C@@H](O)[C@H]2O)cc1F [Capecitabine]	–	1.12
COc1ccccc1N1CCN(CCCCNC(=O)c2ccc3ccccc3c2)CC1	0.26	–
CCC1NC(=O)c2cc(S(N)(=O)=O)c(Cl)cc2N1 (stereo not given) [Quinethazone]	-0.17	–
Cc1cnc(C(=O)NCCc2ccc(S(=O)(=O)NC(=O)NC3CCCCC3)cc2)cn1 [Glipizide]	0.58	–
O=C1[C@H](CC[C@H](O)c2ccc(F)cc2)[C@@H](c2ccc(O)cc2)N1c1ccc(F)cc1 [Ezetimibe]	0.24	–
COC(=O)C1=C(C)NC(C)=C(C(=O)OCCN(C)Cc2ccccc2)C1c1cccc([N+](=O)[O-])c1 (stereo not given) [Nicardipine hydrochloride]	0.69	–
OC[C@H]1O[C@@H](c2ccc(Cl)c(Cc3ccc(O[C@H]4CCOC4)cc3)c2)[C@H](O)[C@@H](O)[C@@H]1O [Empagliflozin]	0.28	–
CN1CCN(c2c(F)cc3c(=O)c(C(=O)O)cn4c3c2SCC4)CC1 [Rufloxacin]	-0.8	–
COC(=O)C1=C(C)NC(C)=C(C(=O)OCC(C)C)C1c1ccccc1[N+](=O)[O-] (stereo not given) [Nisoldipine]	0.69	–
CN(C)CCOC(c1ccc(Cl)cc1)c1ccccn1 (stereo not given) [Carbinoxamine maleate salt]	0.42	–
O=C1CCc2ccc(OCCCCN3CCN(c4cccc(Cl)c4Cl)CC3)cc2N1 [Aripiprazole]	-0.91	–
NC(=O)NC1NC(=O)NC1=O (stereo not given) [Allantoin]	0.47	–
CNCc1cc(-c2ccccc2F)n(S(=O)(=O)c2cccnc2)c1 [Vonoprazan]	0.68	–
CC(C)NCC(O)c1ccc(O)c(O)c1 (single isomer, unassigned; (-)) [(-) Isoproterenol hydrochloride]	-0.14	–
O=C1C(O)=C([C@H]2CC[C@H](c3ccc(Cl)cc3)CC2)C(=O)c2ccccc21 [Atovaquone]	1.12	–
Cc1ccccc1C(OCCN(C)C)c1ccccc1 (stereo not given) [Orphenadrine hydrochloride]	-0.38	–

Not a retest: entries from further up.
SMILES	eye size Z-score	eye size Z-score (female)
O=C(Cn1cnnn1)N[C@@H]1C(=O)N2C(C(=O)O)=C(CSc3nncs3)CS[C@H]12 [Ceftezole]	0.37	–
CCCCCOC(=O)Nc1nc(=O)n([C@@H]2O[C@H](C)[C@@H](O)[C@H]2O)cc1F [Capecitabine]	–	1.12
COc1ccccc1N1CCN(CCCCNC(=O)c2ccc3ccccc3c2)CC1	0.26	–
